# The campaign covered roughly 320,000 compounds. About 2,100 (0.66%) were called active. The shares of active, inactive and inconclusive entries below differ from those in the screen. Calls come from the whole dose curve; as a rule, active = well fitted inhibition curve with a large enough effect in the signal ratio, with a control signal flat (not every such curve was filed as active); inconclusive = small, poorly fitted or top-dose-only effect, or effect the other way, or a change in a side signal; inactive = flat fitted curve, though single readings scatter; the % refers to the signal ratio. A potency beside an inconclusive call is a rough fit, not a confirmed value.
# Assay: qHTS Assay for Lipid Storage Modulators in Drosophila S3 Cells
# Settings: BODIPY lipid droplet fluorescence, 18-24 h, cells fed with added oleic acid; lipid storage change, negative = inhibition: at 46.1 µM (top of the series) unless noted
# Summary of the method: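 Drosophila S3 cells loaded with oleic acid (400 uM, as added) and compounds at several concentrations; lipid droplets imaged by 488-nm laser-scanning cytometry, 500–530 nm intensity and object ratio to cell channel. Percent activity normalized to 20 uM Triacsin C.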
# % is set by controls: 0 for no effect and ±100 for the full control effect; potency is the fitted concentration of half-maximal effect.
SMILES,"lipid storage change, negative = inhibition",Potency
O=C(c1cc(COc2c(F)cccc2F)on1)N1CCC(c2ccccc2F)C1 (stereo not given),inconclusive: -13.3%,
CCCCOC(=S)NC(=O)c1sc2ccccc2c1Cl,inconclusive: -22%,
O=C(O)c1ccc(-c2sc(Nc3ccccc3)n[n+]2-c2ccccc2)cc1,,"inconclusive: 0.231 µM [activator, full curve]"
CCC(C)NC(=O)c1cn(-c2cccc(OC)c2)c(=O)c2ccccc12 (stereo not given),,"inconclusive: 6.51 µM [activator, single point]"
Cc1cc(O)cc(O)c1C(=O)Cc1cnn(-c2ccccc2)c1,,"inconclusive: 20.6 µM [activator, partial curve]"
COc1ccc(C2/C=C\CN(CC(C)C)CC(=O)N2Cc2ccc(F)cc2)cc1 (stereo not given),inconclusive: 16.5%,
CCCn1c(SCC(=O)NCc2ccc3c(c2)OCO3)n[nH]c1=O,inconclusive: 20.7%,
Cc1cc(C(=O)N/N=C/c2sc(N3CCOCC3)nc2-c2ccccc2)c(C)o1,inconclusive: -33.2%,
CCCS(=O)(=O)c1cnc(C2COc3ccccc3O2)nc1N (stereo not given),inconclusive: 9.97%,
COCCC(=O)NC12CC3CC(CC(C3)C1)C2,inactive,
CN(C(=O)CSc1ccc(S(=O)(=O)N2CCCCC2)cn1)c1ccccc1,,"inconclusive: 0.103 µM [falling, full curve, poor fit]"
O=C(CCC1CCCN(C(=O)C2CCCC2)C1)NCc1ccc(F)c(F)c1 (stereo not given),inconclusive: -27%,
CN(CCC#N)C(=O)CC1(Cc2ccccc2)CCOC(C)(C)C1 (stereo not given),inconclusive: -10.5%,
C=CCSc1nc(N)c2c(C)c(C)sc2n1,,"inconclusive: 1.64 µM [activator, full curve]"
CCn1c(CSc2nc(C)cc(C)n2)nnc1SCC(=O)Nc1nc(-c2ccccc2)cs1,,"inconclusive: 1.64 µM [activator, full curve]"
Cc1cc(SC#N)cc(C)c1NC(=O)CCl,inconclusive: -62%,
Cc1cc(NC(=O)CCC(=O)N(Cc2ccccc2)C(C(=O)NC2CCCC2)c2ccc(C)o2)no1 (stereo not given),,"inconclusive: 0.13 µM [activator, single point]"
C=C(C)[C@@H]1CC=C(CN2CCC(N3CCC(C(=O)N4CCCC4)CC3)CC2)CC1,,"inconclusive: 29.1 µM [falling, single point]"
CCn1c(=O)n(CC)c2cc(S(N)(=O)=O)ccc21,inconclusive: -23.5%,
CCOc1ccc(/C=C(\C#N)C(=O)c2c(C)[nH]c3ccccc23)cc1OC,inconclusive: 23.2%,
Cc1cc(=S)nc(-c2ccccn2)[nH]1,inconclusive: -31.4%,
CN(CC(=O)Nc1cccc(F)c1)C(=O)c1cn(-c2ccccc2)nc1-c1ccccc1,,"inconclusive: 29.1 µM [falling, single point]"
Cc1cc(C)cc(NC(=S)N2C3CCCC2CC(NC(=O)C2CC2)C3)c1 (stereo not given),inconclusive: 24.9%,
CCCn1c(C)cc(C(=O)CSc2nnc3n(CCC)c(=O)c4ccccc4n23)c1C,inconclusive: -91%,
CCn1nc(C)c(CN2CCC(n3nccc3NC(=O)Cc3ccccc3)CC2)c1C,inconclusive: 5.72%,

# Already shown: entries from further up.
SMILES,"lipid storage change, negative = inhibition",Potency
CN(CC(=O)Nc1cccc(F)c1)C(=O)c1cn(-c2ccccc2)nc1-c1ccccc1,,"inconclusive: 29.1 µM [falling, single point]"
Cc1cc(C)cc(NC(=S)N2C3CCCC2CC(NC(=O)C2CC2)C3)c1 (stereo not given),inconclusive: 24.9%,
CCCn1c(C)cc(C(=O)CSc2nnc3n(CCC)c(=O)c4ccccc4n23)c1C,inconclusive: -91%,

# (list continues)

SMILES,"lipid storage change, negative = inhibition",Potency
COc1cccc(OC)c1C(=O)Nc1ccc(N2CCN(C(=O)c3ccco3)CC2)cc1,inconclusive: -62.5%,
Cc1cccc(OCC(=O)NCc2cc(C)nc3ccccc23)c1,inactive,
CCc1ccc(CNC(=O)CCc2nc(-c3cccs3)no2)cc1,inconclusive: -7.68%,
Cc1cc(C)c(S(=O)(=O)Nc2nnc(C)s2)c(C)c1,inactive,
CC(=O)c1ccc(OCC(O)CN2CCCC(C)C2)cc1 (stereo not given),,"inconclusive: 0.651 µM [falling, single point]"
O=C(c1ccccc1)N1CCN(CCc2ccccn2)CC1,inconclusive: 24.4%,
COc1ccc(NC(=O)CNC(=O)Cn2c(C)cc3ccccc3c2=O)c(OC)c1,inconclusive: -21.6%,
Cc1ccc(S(=O)(=O)N(CC(=O)N2CCc3ccccc3C2)c2cccc(Cl)c2)cc1,inconclusive: 1.35%,
Cc1cccc(C(=O)Nc2ccc3c(c2)ncn3C)c1,inconclusive: -14.1%,
COc1ccc(-c2noc(CCc3ccccc3)n2)cc1,,"inconclusive: 23.1 µM [rising, partial curve]"
COc1ccc(Nc2ncnc3c2cnn3-c2cccc(C)c2)cc1OC,inconclusive: 4.48%,
CCOC(=O)c1c(C)[n+]([O-])c2ccc3c(non3O)c12,,"inconclusive: 25.9 µM [cytotoxic, single point]"
CO/N=C/c1c(-c2ccccc2)nn(C)c1Cl,inconclusive: 4.39%,
Cc1cc(C(=O)COC(=O)c2cccc(S(=O)(=O)N(C)C)c2)c(C)n1CC1CCCO1 (stereo not given),inconclusive: -12.3%,
COC(=O)C1CCN(S(=O)(=O)Cc2ccccc2)CC1,inconclusive: 7.11%,
COc1ccc(Cl)cc1NC(=S)N1CCN(c2ncccn2)CC1,inconclusive: 20.4%,
O=C(O)COc1ccccc1/C=N/Nc1ccc(S(=O)(=O)N2CCOCC2)cc1[N+](=O)[O-],inconclusive: 5.64%,
Cc1ccc(-c2csc(N3CCN(c4cc5c(cc4Cl)nc(C(C)N)n5CCCO)CC3)n2)cc1 (stereo not given),,"inconclusive: 4.11 µM [activator, full curve]"
O=C1C2C3C=CC(C3)C2C(=O)N1Nc1ccc([N+](=O)[O-])cc1[N+](=O)[O-] (stereo not given),inconclusive: -25.9%,
COC(=O)c1sc(S(=O)(=O)NCc2ccccc2)c(C(=O)OC)c1C,inconclusive: 3.99%,
Cc1cc(NC(=O)c2noc3c2CCc2ccccc2-3)n(-c2ccccc2)n1,inconclusive: 5.68%,
CC(C)c1csc(CN2CCC(CO)(Cc3ccccc3)CC2)n1,,"inconclusive: 25.9 µM [falling, single point]"
C=CCn1c(SCC(=O)NCC2CCCO2)nc2sc(C)c(C)c2c1=O (stereo not given),inconclusive: -30%,
Cc1ccccc1OCCC(=O)Nc1c(C)n(C)n(-c2ccccc2)c1=O,,"inconclusive: 0.731 µM [falling, full curve]"
O=C(NCc1ccccn1)c1nn(-c2ccccc2)c(=O)c2ccccc12,inconclusive: 42.8%,

# Reference: PubChem BioAssay AID2685 (National Center for Advancing Translational Sciences (NCATS), 2010)
